Results published in the supplement of paper PMC7666118.
This is one part of the list.

Protein sequences, listed by entry. Tags and fused reporters are not part of them. Lines headed by an entry give the natural chain unless they say otherwise; changes in a name come on top.
UniProt O60603, whole entry: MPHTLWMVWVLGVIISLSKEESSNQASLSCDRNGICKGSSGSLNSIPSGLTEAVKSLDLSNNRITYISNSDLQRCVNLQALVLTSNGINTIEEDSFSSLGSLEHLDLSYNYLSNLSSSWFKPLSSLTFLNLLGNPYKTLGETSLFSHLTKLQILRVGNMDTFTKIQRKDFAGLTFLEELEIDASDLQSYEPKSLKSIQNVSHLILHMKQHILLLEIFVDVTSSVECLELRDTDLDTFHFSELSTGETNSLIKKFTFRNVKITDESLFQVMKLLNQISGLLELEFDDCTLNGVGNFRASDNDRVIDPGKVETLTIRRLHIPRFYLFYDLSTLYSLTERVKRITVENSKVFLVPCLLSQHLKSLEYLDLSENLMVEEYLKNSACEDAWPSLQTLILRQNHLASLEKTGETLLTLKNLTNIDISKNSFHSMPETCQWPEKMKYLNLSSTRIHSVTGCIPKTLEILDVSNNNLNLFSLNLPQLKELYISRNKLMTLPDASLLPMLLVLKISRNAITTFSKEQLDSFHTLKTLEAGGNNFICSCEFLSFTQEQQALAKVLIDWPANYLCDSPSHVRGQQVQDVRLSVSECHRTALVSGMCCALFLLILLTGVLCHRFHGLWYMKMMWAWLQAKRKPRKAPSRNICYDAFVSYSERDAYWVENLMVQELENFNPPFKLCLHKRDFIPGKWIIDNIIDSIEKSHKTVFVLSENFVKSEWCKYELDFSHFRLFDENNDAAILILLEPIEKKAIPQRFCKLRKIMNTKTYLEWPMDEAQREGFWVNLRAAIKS
UniProt Q9Y5J7: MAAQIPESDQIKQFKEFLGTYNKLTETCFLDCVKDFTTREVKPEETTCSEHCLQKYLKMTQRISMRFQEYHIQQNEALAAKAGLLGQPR
UniProt Q8NHX9: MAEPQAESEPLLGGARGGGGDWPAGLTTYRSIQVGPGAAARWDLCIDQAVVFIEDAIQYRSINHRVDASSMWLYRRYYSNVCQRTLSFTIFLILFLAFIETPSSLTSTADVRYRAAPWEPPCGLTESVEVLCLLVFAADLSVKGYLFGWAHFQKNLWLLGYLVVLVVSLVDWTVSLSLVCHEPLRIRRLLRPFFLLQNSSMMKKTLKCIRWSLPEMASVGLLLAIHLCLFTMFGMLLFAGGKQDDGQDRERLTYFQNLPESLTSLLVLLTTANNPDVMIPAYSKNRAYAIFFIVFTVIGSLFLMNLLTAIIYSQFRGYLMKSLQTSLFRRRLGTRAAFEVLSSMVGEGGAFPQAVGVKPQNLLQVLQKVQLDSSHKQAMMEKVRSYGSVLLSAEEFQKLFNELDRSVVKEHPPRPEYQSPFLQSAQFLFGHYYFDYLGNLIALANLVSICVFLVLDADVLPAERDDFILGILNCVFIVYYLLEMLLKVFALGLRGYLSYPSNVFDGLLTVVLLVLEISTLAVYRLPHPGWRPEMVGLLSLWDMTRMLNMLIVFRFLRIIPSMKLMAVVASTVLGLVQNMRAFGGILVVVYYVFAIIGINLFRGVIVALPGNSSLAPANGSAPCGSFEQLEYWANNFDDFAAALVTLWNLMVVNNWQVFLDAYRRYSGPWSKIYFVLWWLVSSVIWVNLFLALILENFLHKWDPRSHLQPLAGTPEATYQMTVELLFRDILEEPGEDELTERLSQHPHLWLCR
UniProt O14773: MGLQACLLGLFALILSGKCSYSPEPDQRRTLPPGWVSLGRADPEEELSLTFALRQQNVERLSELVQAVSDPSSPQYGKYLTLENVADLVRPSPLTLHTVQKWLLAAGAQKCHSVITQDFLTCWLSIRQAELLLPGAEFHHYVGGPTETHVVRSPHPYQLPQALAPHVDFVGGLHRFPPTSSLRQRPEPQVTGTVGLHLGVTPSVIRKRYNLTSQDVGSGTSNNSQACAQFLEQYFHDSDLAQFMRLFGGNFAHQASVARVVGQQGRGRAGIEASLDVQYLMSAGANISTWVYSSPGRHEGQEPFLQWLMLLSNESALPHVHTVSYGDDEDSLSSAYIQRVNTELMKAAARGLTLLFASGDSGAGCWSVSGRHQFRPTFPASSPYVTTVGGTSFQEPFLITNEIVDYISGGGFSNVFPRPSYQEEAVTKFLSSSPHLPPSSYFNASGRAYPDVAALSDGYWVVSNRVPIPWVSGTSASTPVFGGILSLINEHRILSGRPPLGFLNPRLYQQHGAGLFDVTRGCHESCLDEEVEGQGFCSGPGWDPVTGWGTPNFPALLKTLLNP
UniProt Q9Y519: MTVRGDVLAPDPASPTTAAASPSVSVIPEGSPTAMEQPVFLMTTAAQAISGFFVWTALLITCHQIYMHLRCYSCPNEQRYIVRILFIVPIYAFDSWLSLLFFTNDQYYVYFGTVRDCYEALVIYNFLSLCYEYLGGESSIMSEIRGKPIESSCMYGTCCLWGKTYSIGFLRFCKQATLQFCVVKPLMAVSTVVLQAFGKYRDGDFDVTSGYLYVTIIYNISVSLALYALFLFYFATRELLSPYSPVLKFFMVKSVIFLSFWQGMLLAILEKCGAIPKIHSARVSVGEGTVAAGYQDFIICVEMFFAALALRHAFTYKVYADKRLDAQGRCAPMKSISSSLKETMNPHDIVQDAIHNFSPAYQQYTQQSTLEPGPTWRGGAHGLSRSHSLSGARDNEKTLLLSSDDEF
UniProt P60174, whole entry: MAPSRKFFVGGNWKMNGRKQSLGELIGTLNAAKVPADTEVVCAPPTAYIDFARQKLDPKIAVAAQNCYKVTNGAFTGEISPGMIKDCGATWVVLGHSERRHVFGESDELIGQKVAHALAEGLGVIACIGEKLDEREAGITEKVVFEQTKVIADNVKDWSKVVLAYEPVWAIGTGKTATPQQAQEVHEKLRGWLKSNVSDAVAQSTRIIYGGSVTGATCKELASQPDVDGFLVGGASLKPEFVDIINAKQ
UniProt Q9H6X4: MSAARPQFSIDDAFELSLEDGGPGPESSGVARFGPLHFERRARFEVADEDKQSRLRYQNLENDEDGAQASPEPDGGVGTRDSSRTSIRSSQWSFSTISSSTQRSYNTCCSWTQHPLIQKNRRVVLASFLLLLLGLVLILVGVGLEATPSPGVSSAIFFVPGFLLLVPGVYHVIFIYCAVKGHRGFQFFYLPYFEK
UniProt Q9H813: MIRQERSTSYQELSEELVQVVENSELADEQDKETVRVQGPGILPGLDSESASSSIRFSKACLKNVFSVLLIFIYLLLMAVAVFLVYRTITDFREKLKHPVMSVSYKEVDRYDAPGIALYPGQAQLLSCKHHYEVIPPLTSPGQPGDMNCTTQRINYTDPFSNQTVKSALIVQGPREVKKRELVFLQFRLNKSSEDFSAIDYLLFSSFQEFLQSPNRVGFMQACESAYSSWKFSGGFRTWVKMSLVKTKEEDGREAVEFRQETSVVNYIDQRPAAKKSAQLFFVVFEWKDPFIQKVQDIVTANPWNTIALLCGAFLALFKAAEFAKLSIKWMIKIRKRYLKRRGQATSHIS
UniProt Q8IZ69: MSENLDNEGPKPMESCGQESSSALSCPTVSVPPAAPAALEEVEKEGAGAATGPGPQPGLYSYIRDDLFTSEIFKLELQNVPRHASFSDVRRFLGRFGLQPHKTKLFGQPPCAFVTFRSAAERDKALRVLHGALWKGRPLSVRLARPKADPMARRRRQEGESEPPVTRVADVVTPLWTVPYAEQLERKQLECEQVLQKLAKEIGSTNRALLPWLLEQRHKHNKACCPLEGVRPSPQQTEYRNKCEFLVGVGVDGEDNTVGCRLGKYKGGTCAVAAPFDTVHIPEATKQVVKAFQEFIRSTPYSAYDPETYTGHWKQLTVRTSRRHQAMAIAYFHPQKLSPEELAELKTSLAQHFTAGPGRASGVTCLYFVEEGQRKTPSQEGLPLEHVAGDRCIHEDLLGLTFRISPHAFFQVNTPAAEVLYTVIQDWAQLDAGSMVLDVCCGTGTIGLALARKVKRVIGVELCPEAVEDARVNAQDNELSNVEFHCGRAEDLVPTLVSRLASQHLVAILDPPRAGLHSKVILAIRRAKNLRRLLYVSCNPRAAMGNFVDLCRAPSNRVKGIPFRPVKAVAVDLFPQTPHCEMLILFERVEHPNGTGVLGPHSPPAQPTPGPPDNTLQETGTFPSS
UniProt Q14142: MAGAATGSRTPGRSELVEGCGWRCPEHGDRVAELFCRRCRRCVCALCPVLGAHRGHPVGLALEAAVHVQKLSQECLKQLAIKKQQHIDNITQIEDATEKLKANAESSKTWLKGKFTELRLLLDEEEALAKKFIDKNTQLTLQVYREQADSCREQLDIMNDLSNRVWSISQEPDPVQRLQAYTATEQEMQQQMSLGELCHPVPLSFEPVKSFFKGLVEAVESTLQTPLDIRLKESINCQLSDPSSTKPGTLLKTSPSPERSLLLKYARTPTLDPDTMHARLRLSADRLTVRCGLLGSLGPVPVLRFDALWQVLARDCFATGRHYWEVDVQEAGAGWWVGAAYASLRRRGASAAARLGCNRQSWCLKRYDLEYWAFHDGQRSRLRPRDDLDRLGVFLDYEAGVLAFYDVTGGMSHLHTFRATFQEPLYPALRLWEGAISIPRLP
UniProt P55061, whole entry: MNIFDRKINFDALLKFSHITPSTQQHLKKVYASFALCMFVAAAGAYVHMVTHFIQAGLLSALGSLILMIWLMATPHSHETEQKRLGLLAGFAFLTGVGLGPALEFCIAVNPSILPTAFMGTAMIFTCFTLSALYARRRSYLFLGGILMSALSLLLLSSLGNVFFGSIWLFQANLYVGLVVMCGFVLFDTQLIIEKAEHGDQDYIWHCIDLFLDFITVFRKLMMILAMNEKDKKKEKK
UniProt Q13114: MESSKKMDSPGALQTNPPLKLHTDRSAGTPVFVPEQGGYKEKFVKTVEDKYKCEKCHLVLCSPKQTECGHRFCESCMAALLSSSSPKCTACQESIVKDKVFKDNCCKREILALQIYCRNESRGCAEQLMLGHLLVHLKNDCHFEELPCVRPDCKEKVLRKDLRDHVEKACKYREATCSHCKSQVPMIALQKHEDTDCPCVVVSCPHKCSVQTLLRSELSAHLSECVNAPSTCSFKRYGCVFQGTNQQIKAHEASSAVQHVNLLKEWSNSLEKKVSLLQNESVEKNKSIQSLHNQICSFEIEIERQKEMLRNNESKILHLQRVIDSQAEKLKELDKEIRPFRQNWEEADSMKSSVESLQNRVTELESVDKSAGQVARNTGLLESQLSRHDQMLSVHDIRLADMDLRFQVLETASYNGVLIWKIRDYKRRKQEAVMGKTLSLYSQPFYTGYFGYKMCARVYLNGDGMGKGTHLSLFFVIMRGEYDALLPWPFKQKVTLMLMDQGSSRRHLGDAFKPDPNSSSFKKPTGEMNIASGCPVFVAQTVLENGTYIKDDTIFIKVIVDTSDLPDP
UniProt Q7Z4L5: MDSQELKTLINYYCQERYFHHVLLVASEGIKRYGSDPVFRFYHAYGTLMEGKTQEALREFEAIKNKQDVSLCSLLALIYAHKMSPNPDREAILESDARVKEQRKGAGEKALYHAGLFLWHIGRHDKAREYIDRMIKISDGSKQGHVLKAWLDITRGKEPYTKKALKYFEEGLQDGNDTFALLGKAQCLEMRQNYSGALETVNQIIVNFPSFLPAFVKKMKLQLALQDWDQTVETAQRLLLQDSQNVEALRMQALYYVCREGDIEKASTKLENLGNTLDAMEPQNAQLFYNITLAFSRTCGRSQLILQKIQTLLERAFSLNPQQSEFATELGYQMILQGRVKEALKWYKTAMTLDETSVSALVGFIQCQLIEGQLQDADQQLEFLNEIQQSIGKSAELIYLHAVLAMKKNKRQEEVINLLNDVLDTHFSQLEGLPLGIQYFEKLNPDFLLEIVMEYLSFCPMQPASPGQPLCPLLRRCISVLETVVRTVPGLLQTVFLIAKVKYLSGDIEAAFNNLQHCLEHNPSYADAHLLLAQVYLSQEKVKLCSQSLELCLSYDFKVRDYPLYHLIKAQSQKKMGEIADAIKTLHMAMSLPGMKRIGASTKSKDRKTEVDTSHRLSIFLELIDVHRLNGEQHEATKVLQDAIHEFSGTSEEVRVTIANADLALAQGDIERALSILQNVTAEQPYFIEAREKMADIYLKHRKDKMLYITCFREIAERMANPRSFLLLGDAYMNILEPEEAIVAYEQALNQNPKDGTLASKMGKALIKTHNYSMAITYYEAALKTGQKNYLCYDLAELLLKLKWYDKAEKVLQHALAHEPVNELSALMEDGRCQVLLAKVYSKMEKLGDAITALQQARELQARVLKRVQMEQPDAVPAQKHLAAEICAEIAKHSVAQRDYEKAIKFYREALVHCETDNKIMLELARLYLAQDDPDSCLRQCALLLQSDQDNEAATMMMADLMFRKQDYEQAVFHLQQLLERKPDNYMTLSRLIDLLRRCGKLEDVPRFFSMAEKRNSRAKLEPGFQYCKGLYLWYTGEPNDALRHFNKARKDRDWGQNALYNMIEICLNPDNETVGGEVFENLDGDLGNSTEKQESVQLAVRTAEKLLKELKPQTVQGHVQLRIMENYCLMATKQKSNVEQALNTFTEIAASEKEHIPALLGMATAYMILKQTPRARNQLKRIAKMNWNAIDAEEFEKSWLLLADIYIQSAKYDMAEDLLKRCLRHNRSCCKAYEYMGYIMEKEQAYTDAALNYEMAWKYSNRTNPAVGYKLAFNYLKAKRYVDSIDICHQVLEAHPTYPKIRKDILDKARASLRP

Each target was assayed with COc1ccc(Cn2ccc3cc(C)c(C(=O)NO)cc32)cc1 (assay: dose-dependent thermal stabilisation call (2D-TPP, DLPTP, 10% FDR) (binary (1 = stabilised)); higher = stabilised by the compound). Settings: system: HL-60 intact cells; concentration range 0.04-10 µM.
Procedure: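 2D thermal proteome profiling in intact HL-60 cells treated with BRD-3811 (0, 0.04, 0.29, 2, 10 uM) for 90 min at 37 C, then heated 3 min at one of 12 temperatures (42-63.9 C). Soluble protein was quantified by TMT10 MS. The value is the DLPTP call of the paper: dose-dependent thermal stabilisation over all temperatures at 10% FDR (F-test of a dose-response against a flat model); one experiment, one call per tested protein.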

Target | dose-dependent thermal stabilisation call
TMEM70 (UniProt Q9BUB7) | inactive: 0
TRAF3IP3 (UniProt Q9Y228) | inactive: 0
TLR2 (UniProt O60603) | inactive: 0
TSPAN31 (UniProt Q12999) | inactive: 0
TNPO1 (UniProt Q92973) | inactive: 0
TMEM41B (UniProt Q5BJD5) | inactive: 0
TRIM33 (UniProt Q9UPN9) | inactive: 0
TNRC6B (UniProt Q9UPQ9) | inactive: 0
TRMT61B (UniProt Q9BVS5) | inactive: 0
TRMT6 (UniProt Q9UJA5) | active: 1
TIMM9 (UniProt Q9Y5J7) | inactive: 0
TRAF2 (UniProt Q12933) | inactive: 0
TIMM22 (UniProt Q9Y584) | inactive: 0
TREX1 (UniProt Q9NSU2) | inactive: 0
TPCN2 (UniProt Q8NHX9) | inactive: 0
TMEM30A (UniProt Q9NV96) | inactive: 0
TPP1 (UniProt O14773) | inactive: 0
TSPAN33 (UniProt Q86UF1) | inactive: 0

Target | dose-dependent thermal stabilisation call
TMEM184B (UniProt Q9Y519) | inactive: 0
TIMM8A (UniProt O60220) | inactive: 0
TPI1 (UniProt P60174) | inactive: 0
TMEM134 (UniProt Q9H6X4) | inactive: 0
TRIM72 (UniProt Q6ZMU5) | inactive: 0
TMEM206 (UniProt Q9H813) | inactive: 0
TRMT2A (UniProt Q8IZ69) | inactive: 0
TRIM14 (UniProt Q14142) | inactive: 0
TRA2A (UniProt Q13595) | inactive: 0
TMBIM6 (UniProt P55061) | inactive: 0
TRAF3 (UniProt Q13114) | inactive: 0
TNIP2 (UniProt Q8NFZ5) | inactive: 0
TM9SF4 (UniProt Q92544) | inactive: 0
TM7SF3 (UniProt Q9NS93) | active: 1
TTC21B (UniProt Q7Z4L5) | inactive: 0
TREX2 (UniProt Q9BQ50) | inactive: 0
TMEM214 (UniProt Q6NUQ4) | inactive: 0
TMEM85 (UniProt Q5J8M3) | inactive: 0

Exported as tab-separated lines: entries from further up.
Target	dose-dependent thermal stabilisation call
TMEM206 (UniProt Q9H813)	inactive: 0
TMEM214 (UniProt Q6NUQ4)	inactive: 0
